Measured values taken from the supplement of paper PMC10849652.
The other results are listed elsewhere or left out. Residues, ends and D or L forms follow the SMILES beside them. *: point of attachment. Cbz = O=C(OCc1ccccc1)*

Chains of the proteins cited; added tags and fusions are not shown. Lines headed by an entry give the natural chain unless they say otherwise; changes in a name come on top.
UniProt O60551: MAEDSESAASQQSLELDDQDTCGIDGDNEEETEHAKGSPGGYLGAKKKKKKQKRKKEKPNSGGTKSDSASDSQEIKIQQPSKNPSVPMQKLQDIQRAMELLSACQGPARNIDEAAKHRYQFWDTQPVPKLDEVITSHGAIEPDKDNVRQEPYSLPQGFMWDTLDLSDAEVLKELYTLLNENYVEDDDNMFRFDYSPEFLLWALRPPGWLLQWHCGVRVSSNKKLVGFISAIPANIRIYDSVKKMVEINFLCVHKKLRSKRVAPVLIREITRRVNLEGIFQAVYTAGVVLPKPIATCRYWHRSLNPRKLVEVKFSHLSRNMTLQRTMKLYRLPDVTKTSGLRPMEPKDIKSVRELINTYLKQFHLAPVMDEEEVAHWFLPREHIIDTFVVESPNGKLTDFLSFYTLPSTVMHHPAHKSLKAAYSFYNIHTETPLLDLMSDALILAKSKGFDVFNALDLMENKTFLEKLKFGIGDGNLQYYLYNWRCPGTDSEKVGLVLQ
UniProt Q13952: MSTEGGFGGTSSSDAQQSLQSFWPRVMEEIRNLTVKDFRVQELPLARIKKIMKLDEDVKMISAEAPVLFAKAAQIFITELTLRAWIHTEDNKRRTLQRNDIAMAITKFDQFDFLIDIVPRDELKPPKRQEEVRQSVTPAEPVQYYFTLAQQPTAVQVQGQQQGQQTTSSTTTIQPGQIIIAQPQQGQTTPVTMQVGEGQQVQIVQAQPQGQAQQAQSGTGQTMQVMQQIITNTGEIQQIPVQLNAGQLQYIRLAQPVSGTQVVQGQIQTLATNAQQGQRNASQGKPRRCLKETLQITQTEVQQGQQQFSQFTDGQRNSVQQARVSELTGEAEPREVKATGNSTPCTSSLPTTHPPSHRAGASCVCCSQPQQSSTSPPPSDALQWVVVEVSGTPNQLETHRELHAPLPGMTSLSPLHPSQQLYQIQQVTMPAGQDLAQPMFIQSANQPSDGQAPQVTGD
UniProt Q96L73: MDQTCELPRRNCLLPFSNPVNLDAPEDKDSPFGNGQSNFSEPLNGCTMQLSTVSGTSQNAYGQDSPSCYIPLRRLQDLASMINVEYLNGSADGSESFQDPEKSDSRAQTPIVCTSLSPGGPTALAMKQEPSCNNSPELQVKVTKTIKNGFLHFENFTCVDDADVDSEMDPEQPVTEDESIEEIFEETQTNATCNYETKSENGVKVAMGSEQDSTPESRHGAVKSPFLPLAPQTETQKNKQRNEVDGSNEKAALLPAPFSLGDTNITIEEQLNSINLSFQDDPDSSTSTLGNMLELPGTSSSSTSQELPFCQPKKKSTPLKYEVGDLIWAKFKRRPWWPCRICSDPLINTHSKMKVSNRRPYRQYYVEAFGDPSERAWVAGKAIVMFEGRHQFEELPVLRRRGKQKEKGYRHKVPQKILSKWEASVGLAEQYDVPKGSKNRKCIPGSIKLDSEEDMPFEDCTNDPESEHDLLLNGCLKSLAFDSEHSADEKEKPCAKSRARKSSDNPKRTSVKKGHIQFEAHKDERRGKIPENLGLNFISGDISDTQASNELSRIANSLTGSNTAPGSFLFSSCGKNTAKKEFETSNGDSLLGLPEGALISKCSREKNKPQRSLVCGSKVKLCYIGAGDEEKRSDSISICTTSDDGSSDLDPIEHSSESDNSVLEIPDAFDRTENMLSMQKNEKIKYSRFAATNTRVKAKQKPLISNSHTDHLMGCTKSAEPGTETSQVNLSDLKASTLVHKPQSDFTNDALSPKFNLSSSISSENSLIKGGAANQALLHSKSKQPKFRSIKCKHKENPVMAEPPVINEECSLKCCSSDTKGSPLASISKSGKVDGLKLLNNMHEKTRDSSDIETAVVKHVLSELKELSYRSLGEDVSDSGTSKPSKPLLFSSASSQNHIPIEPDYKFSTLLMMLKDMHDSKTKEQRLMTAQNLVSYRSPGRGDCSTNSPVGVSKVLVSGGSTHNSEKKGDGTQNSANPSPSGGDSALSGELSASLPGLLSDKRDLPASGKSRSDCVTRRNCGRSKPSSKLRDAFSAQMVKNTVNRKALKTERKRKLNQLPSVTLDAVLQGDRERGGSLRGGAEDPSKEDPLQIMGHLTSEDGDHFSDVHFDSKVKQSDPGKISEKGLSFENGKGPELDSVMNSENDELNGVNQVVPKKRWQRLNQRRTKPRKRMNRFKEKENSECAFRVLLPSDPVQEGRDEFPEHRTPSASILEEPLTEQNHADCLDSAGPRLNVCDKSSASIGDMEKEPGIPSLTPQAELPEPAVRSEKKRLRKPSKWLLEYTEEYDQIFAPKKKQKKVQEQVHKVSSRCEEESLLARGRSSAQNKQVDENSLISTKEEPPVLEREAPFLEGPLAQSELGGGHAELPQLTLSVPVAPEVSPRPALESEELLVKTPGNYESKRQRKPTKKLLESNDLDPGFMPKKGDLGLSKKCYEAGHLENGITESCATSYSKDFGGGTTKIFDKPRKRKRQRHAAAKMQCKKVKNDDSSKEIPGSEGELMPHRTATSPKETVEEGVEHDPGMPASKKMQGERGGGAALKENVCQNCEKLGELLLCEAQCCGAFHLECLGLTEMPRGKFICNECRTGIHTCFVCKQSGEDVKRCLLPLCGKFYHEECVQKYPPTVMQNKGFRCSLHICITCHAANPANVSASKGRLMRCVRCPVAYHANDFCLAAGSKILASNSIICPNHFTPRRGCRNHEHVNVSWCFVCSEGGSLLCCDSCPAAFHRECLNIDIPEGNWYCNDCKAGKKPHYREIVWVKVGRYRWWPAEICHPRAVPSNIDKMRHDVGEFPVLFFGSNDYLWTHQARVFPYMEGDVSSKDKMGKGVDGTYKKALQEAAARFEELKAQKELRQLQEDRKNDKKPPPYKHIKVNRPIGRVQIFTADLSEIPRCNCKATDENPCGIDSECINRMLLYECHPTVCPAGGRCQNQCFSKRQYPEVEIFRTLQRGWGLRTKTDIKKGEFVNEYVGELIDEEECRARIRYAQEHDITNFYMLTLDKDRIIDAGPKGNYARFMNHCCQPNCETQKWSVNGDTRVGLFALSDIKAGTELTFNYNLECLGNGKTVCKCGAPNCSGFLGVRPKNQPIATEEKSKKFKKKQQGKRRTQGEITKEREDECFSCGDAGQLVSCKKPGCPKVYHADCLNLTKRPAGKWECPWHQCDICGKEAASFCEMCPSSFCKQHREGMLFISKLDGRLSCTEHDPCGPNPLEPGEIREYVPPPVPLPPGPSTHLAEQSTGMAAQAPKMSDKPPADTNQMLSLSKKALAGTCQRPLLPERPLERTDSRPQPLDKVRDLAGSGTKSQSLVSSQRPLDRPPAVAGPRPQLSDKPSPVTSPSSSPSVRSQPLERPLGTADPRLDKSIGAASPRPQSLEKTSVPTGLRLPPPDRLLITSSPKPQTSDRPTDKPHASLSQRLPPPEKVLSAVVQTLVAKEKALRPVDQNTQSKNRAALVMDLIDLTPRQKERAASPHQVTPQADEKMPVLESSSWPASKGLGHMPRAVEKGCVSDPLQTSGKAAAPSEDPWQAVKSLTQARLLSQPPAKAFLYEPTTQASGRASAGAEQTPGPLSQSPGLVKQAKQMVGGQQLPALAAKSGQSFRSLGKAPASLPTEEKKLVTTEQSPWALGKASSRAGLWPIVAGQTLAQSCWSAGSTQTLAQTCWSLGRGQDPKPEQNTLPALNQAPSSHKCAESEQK
UniProt P25208: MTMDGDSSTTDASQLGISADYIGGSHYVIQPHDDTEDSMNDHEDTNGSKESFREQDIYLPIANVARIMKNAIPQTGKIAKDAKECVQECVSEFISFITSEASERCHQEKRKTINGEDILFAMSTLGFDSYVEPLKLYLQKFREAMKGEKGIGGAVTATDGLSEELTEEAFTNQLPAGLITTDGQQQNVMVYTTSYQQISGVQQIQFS
UniProt P13056: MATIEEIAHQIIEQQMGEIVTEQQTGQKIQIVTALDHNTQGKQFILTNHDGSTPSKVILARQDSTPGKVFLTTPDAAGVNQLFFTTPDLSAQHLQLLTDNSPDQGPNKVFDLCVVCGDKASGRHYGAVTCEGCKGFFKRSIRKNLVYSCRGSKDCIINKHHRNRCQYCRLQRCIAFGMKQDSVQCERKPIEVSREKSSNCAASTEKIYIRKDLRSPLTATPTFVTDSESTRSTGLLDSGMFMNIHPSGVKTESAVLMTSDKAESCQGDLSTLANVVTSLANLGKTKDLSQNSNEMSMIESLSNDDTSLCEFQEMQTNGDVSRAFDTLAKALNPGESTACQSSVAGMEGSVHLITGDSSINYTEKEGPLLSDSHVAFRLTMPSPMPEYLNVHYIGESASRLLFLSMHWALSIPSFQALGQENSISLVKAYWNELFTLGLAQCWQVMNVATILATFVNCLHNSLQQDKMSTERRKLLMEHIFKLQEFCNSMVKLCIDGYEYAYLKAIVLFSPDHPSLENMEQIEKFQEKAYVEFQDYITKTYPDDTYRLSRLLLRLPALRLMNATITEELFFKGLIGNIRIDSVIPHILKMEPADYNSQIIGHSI
UniProt Q8N5F7: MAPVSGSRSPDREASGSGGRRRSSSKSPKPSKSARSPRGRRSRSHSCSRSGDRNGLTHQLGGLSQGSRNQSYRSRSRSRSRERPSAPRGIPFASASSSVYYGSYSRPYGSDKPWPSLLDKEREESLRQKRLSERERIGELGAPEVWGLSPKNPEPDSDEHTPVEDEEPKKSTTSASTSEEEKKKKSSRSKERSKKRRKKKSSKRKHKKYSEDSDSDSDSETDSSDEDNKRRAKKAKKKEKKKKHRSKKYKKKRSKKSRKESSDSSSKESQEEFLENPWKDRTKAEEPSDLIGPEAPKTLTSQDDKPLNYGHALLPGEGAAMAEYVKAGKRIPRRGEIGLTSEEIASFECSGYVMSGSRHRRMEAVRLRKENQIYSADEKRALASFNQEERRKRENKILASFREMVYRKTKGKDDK
UniProt Q8WX92, whole entry, looked up: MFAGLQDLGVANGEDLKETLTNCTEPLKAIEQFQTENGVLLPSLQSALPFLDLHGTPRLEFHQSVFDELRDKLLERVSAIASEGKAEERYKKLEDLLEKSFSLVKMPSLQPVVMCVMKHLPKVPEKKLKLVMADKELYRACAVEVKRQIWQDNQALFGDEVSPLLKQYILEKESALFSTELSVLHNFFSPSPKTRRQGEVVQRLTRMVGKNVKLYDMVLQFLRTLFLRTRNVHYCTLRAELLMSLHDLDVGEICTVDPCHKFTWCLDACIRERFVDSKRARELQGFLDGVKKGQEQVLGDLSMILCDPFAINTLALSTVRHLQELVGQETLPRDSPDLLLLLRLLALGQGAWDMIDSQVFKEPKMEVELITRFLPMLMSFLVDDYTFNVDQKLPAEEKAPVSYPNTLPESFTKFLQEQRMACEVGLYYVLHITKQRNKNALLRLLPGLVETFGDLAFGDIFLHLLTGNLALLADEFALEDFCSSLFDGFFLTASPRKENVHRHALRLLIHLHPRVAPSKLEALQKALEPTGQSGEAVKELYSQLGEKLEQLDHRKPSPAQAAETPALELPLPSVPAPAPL
UniProt Q8IXH7, whole entry, looked up: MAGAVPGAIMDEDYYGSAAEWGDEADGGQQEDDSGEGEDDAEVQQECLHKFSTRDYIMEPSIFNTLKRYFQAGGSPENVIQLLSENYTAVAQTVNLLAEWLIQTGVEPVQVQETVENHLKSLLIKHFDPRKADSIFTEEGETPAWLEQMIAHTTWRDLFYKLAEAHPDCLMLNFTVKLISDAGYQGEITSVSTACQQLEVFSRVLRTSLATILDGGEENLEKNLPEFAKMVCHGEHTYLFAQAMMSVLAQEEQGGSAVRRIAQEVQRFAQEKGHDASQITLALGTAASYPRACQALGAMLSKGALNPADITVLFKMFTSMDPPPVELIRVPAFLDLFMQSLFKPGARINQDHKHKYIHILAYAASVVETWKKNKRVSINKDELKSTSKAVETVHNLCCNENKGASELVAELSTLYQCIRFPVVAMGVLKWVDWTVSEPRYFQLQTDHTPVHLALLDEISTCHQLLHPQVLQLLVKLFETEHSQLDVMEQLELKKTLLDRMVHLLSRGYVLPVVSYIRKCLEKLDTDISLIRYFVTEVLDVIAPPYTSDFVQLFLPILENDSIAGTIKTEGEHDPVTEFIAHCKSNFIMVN

Experiments:
Assay in all cases: log2 fold change, soluble protein after heating vs DMSO (PISA); higher = thermal stabilisation; K562 cells, 10 uM, 30 min; active = over 0.2 and 3.5 SD of the protein, either way, in both replicates (recomputed)
[1] = compound: C1COCCN1CCN2C3=CC=CC=C3N=C2NC(=O)C4=CC(=CC=C4)[N+](=O)[O-] [IRAK-1-4 Inhibitor I]
Method in brief: (§1)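 K562 cells at 2×10^6 cells/mL were treated with 10 μM compound for 30 min. Aliquots were heated for 3 min across 48°C-58°C, pooled, and extracted in PBS with 0.5% NP-40 at 4°C; soluble protein was the supernatant after 21,000xg for 90 min. Soluble protein was quantified by TMTpro 16plex LC-MS/MS with channel sums equalised, and reported as log2 fold change in thermal stability against DMSO controls, with values from duplicates.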

[2] = compound: C=CC(=O)N1CCC[C@@H](n2nc(-c3ccc(Oc4ccccc4)cc3)c3c(N)ncnc32)C1 [ibrutinib]
Method in brief: as §1

[3] = compound: CC(=O)c1cnc2ccc(-c3cc(Cl)c(O)c(Cl)c3)nc2c1N[C@H]1CC[C@H](CN(C)C)CC1
Method in brief: as §1

[4] = compound: CC(C)(C)Cn1c(N)nc2ccc(-c3[nH]c(C(C)(C)C)nc3-c3ccc(F)cc3)nc21 [ralimetinib]
Method in brief: as §1

[5] = compound: CC(C)(O)CC(=O)NCCn1ccc2ncnc(Nc3ccc(Oc4cccc(C(F)(F)F)c4)c(Cl)c3)c21
Method in brief: as §1

[6] = compound: CC(C)C1=C2N=C(C=C(N2N=C1)NCC3=CC=CC=C3)NCCCCCCN
Method in brief: as §1

[7] = compound: CC(C)C[C@@H](C=O)NC(=O)[C@H](CC(C)C)NC(=O)[C@H](CC(C)C)NC(=O)OCc1ccccc1
Method in brief: as §1

[8] = compound: CC(C)N(C[C@H]1O[C@@H](n2cnc3c(N)ncnc32)[C@H](O)[C@@H]1O)[C@H]1C[C@@H](CCc2nc3cc(C(C)(C)C)ccc3[nH]2)C1 [pinometostat]
Method in brief: as §1

[9] = compound: CC1=C(C2=C(C=C1)C(=O)C3=CC=CC=C3N2CCCN)C
Method in brief: as §1

[10] = compound: CC1=C(C=C(C=C1)NC(=O)C2=CC(=CC=C2)C(C)(C)C#N)NC3=CC4=C(C=C3)N=CN(C4=O)C
Method in brief: as §1

[11] = compound: CC1=C(C=C(C=C1)NC(=O)C2=CC(=CC=C2)N(C)C)NC(=O)C3=CC=C(C=C3)O
Method in brief: as §1

[12] = compound: CC1=CC=C(C=C1)SC2=C3C=C(SC3=CN=C2)C(=O)N
Method in brief: as §1

[13] = compound: CC1=NC(=CC=C1)C2=C(N=C(N2)C(C)(C)C)C3=CC4=NC=CN=C4C=C3
Method in brief: as §1

[14] = compound: CCCCN(Cc1ccc(C(=O)NO)cc1)C(=O)Nc1ccccc1 [Nexturastat A]
Method in brief: as §1

[15] = compound: CCCS(=O)(=O)Nc1ccc(F)c(C(=O)c2c[nH]c3ncc(-c4ccc(Cl)cc4)cc23)c1F [vemurafenib]
Method in brief: as §1

[16] = compound: CCCS(=O)(=O)Nc1ccc(F)c(C(=O)c2c[nH]c3ncc(Cl)cc23)c1F
Method in brief: as §1

[17] = compound: CCCc1cc(C)[nH]c(=O)c1CNC(=O)c1cc(-c2ccnc(N3CCN(C)CC3)c2)cc2c1cnn2C(C)C
Method in brief: as §1

[18] = compound: CCN(CC)Cc1ccc2cc(COC(=O)Nc3ccc(C(=O)NO)cc3)ccc2c1 [givinostat]
Method in brief: as §1

[19] = compound: CCN(CCCOc1ccc2c(Nc3cc(CC(=O)Nc4cccc(F)c4)[nH]n3)ncnc2c1)CCOP(=O)(O)O [barasertib]
Method in brief: as §1

[20] = compound: CC1=C(C(CC(=O)N1)C2=CC=C(C=C2)C(F)(F)F)C(=O)NC3=C(C=C4C(=C3)C=NN4)F
Method in brief: as §1

Target: NMT2 (UniProt O60551)
- log2 fold change [1]: inactive: 0.006
- log2 fold change [2]: inactive: 0.064
- log2 fold change [3]: inactive: -0.031
- log2 fold change [4]: inactive: -0.017
- log2 fold change [5]: inactive: -0.022
- log2 fold change [6]: inactive: -0.125
- log2 fold change [7]: inactive: -0.019
- log2 fold change [8]: inactive: 0.053
- log2 fold change [9]: inactive: 0.01
- log2 fold change [10]: inactive: 0.006
- log2 fold change [11]: inactive: 0.018
- log2 fold change [12]: inactive: 0.237
- log2 fold change [13]: inactive: 0.024
- log2 fold change [14]: inactive: -0.037
- log2 fold change [15]: inactive: -0.034
- log2 fold change [16]: inactive: 0.031
- log2 fold change [17]: inactive: 0.02
- log2 fold change [18]: inactive: -0.233
- log2 fold change [19]: inactive: 0

Target: NFYC (UniProt Q13952)
- log2 fold change [1]: inactive: -0.023
- log2 fold change [2]: inactive: -0.042
- log2 fold change [3]: inactive: -0.023
- log2 fold change [4]: inactive: -0.09
- log2 fold change [5]: inactive: -0.046
- log2 fold change [6]: inactive: 0.019
- log2 fold change [7]: inactive: -0.061
- log2 fold change [8]: inactive: -0.087
- log2 fold change [9]: active: 0.332
- log2 fold change [10]: inactive: 0.005
- log2 fold change [11]: inactive: 0.011
- log2 fold change [12]: inactive: -0.061
- log2 fold change [13]: inactive: 0.019
- log2 fold change [14]: inactive: -0.087
- log2 fold change [15]: inactive: -0.006
- log2 fold change [16]: inactive: -0.001
- log2 fold change [17]: inactive: -0.031
- log2 fold change [18]: inactive: 0.001
- log2 fold change [19]: inactive: 0.028

Target: NOD1 (UniProt Q9Y239)
- log2 fold change [1]: inactive: -0.039
- log2 fold change [2]: inactive: -0.042
- log2 fold change [4]: inactive: -0.071
- log2 fold change [5]: inactive: 0.011
- log2 fold change [7]: inactive: 0.024
- log2 fold change [8]: inactive: -0.116
- log2 fold change [10]: inactive: -0.15
- log2 fold change [11]: inactive: -0.048
- log2 fold change [12]: inactive: -0.198
- log2 fold change [13]: inactive: -0.076
- log2 fold change [14]: inactive: -0.026
- log2 fold change [16]: inactive: -0.341
- log2 fold change [19]: inactive: -0.018

Target: NPC1L1 (UniProt Q9UHC9)
- log2 fold change [1]: inactive: 0.014
- log2 fold change [2]: inactive: 0.047
- log2 fold change [3]: inactive: -0.008
- log2 fold change [8]: inactive: -0.136
- log2 fold change [9]: inactive: 0.085
- log2 fold change [10]: inactive: -0.014
- log2 fold change [12]: inactive: 0.152
- log2 fold change [13]: inactive: 0.02
- log2 fold change [15]: inactive: -0.213
- log2 fold change [16]: inactive: -0.109
- log2 fold change [17]: inactive: 0.012
- log2 fold change [19]: inactive: -0.037

Target: NSD1 (UniProt Q96L73)
- log2 fold change [1]: inactive: 0.014
- log2 fold change [2]: inactive: -0.029
- log2 fold change [3]: inactive: 0.088
- log2 fold change [6]: inactive: -0.071
- log2 fold change [8]: inactive: -0.029
- log2 fold change [20]: inactive: 0.003
- log2 fold change [10]: inactive: -0.062
- log2 fold change [13]: inactive: 0.033
- log2 fold change [17]: inactive: 0.074
- log2 fold change [18]: inactive: -0.045
- log2 fold change [19]: inactive: 0.044

Target: NFYB (UniProt P25208)
- log2 fold change [1]: inactive: 0.07
- log2 fold change [2]: inactive: -0.051
- log2 fold change [3]: inactive: 0.019
- log2 fold change [4]: inactive: 0.016
- log2 fold change [6]: inactive: 0.054
- log2 fold change [7]: inactive: -0.007
- log2 fold change [8]: inactive: -0.043
- log2 fold change [9]: active: 0.411
- log2 fold change [10]: inactive: -0.012
- log2 fold change [11]: inactive: -0.118
- log2 fold change [12]: inactive: -0.023
- log2 fold change [13]: inactive: 0.025
- log2 fold change [15]: inactive: 0.026
- log2 fold change [16]: inactive: 0.025
- log2 fold change [17]: inactive: 0.044
- log2 fold change [18]: inactive: -0.012
- log2 fold change [19]: inactive: 0.049

Target: NR2C1 (UniProt P13056)
- log2 fold change [1]: inactive: 0.031
- log2 fold change [2]: inactive: -0.021
- log2 fold change [3]: inactive: -0.076
- log2 fold change [5]: inactive: -0.035
- log2 fold change [8]: inactive: 0.227
- log2 fold change [20]: inactive: -0.026
- log2 fold change [10]: inactive: -0.045
- log2 fold change [13]: inactive: 0.192
- log2 fold change [14]: inactive: -0.114
- log2 fold change [15]: inactive: -0.006
- log2 fold change [17]: inactive: -0.15
- log2 fold change [19]: inactive: 0.096

Target: NKAP (UniProt Q8N5F7)
- log2 fold change [1]: inactive: 0
- log2 fold change [2]: inactive: 0.004
- log2 fold change [3]: inactive: -0.218
- log2 fold change [4]: inactive: 0.033
- log2 fold change [5]: inactive: 0.105
- log2 fold change [6]: inactive: -0.123
- log2 fold change [7]: inactive: 0.103
- log2 fold change [8]: inactive: 0.032
- log2 fold change [9]: inactive: -0.022
- log2 fold change [11]: inactive: 0.233
- log2 fold change [12]: inactive: 0.017
- log2 fold change [13]: inactive: 0.052
- log2 fold change [14]: inactive: 0.042
- log2 fold change [15]: inactive: 0.073
- log2 fold change [16]: inactive: 0.046
- log2 fold change [17]: inactive: 0.15
- log2 fold change [18]: inactive: 0.044
- log2 fold change [19]: inactive: -0.165

Target: NELFB isoform 2 (UniProt Q8WX92)
- log2 fold change [1]: inactive: -0.03
- log2 fold change [2]: inactive: -0.045
- log2 fold change [3]: inactive: -0.144
- log2 fold change [4]: inactive: -0.067
- log2 fold change [5]: inactive: -0.154
- log2 fold change [6]: inactive: -0.112
- log2 fold change [7]: inactive: 0.001
- log2 fold change [8]: inactive: 0.022
- log2 fold change [9]: inactive: 0.042
- log2 fold change [10]: inactive: -0.026
- log2 fold change [11]: inactive: -0.062
- log2 fold change [12]: inactive: 0.035
- log2 fold change [13]: inactive: 0.05
- log2 fold change [14]: inactive: -0.032
- log2 fold change [15]: inactive: 0.06
- log2 fold change [16]: inactive: 0.08
- log2 fold change [17]: inactive: -0.007
- log2 fold change [18]: inactive: 0.069
- log2 fold change [19]: inactive: 0.046

Target: NELFCD (UniProt Q8IXH7)
- log2 fold change [1]: inactive: -0.038
- log2 fold change [2]: inactive: -0.18
- log2 fold change [3]: inactive: -0.04
- log2 fold change [5]: inactive: -0.394
- log2 fold change [6]: inactive: 0.101
- log2 fold change [8]: inactive: 0.017
- log2 fold change [12]: inactive: 0.02
- log2 fold change [13]: inactive: 0.18
- log2 fold change [14]: inactive: 0.094
- log2 fold change [15]: inactive: 0.15
- log2 fold change [16]: inactive: 0.051
- log2 fold change [18]: inactive: 0.167
- log2 fold change [19]: inactive: 0
